Data as given in PubChem BioAssay AID1224826 (NIAID, 2016).
The whole screen tested about 17,000 reagents; below is an unselected part. About 1,110 of all reagents (6.6%) were called active. 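Active means lowered or raised reporter signal; replicate intensities are raw and not normalised per plate.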 The numbers tell different reagents against one gene apart. Reagent sequences are not shown.

Test: 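Knock-downs that raise or lower Tnf reporter signal after endotoxin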 (primary screen)
Cell system: RAW264.7 G9 macrophages from mouse bearing reporters for p65 (GFP) and the Tnf promoter (mCherry)
Reagents: siRNA pool against mouse genes, 100 nM
Timing: 16 h of LPS stimulation, after 2 days of siRNA transfection
Conditions: bacterial lipopolysaccharide (Salmonella minnesota R595), 10 ng/ml
Read-out: 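Imaged Tnf reporter mCherry in nuclei, minus background, normalised per plate to the median and expressed as robust z-scores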
Reading the numbers: Tnf reporter robust z-score: higher = stronger Tnf promoter reporter signal after LPS; Tnf reporter intensity: higher = stronger Tnf promoter reporter signal
Call rule: 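Called active when robust z-score is at most -1.3, matching the median of the Tlr4 knock-down control, or over 3; control wells and wells with under 50 cells never active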
Calls: active = Tnf reporter clearly lowered or raised; inactive = no clear change in Tnf reporter

The opening 3 records as a preview:
target gene	reagent no.	Tnf reporter robust z-score	fewer than 50 cells in well	Tnf reporter intensity, replicate 1	Tnf reporter intensity, replicate 2	Call
Tmem135	1	0.27	enough cells in well	188	47.5	inactive
Tada2a	1	1.18	enough cells in well	311	196	inactive
Prkch	1	-0.41	enough cells in well	188	120	inactive

Main list, repeating the preview:
target gene	reagent no.	Tnf reporter robust z-score	fewer than 50 cells in well	Tnf reporter intensity, replicate 1	Tnf reporter intensity, replicate 2	Call
Tmem135	1	0.27	enough cells in well	188	47.5	inactive
Tada2a	1	1.18	enough cells in well	311	196	inactive
Prkch	1	-0.41	enough cells in well	188	120	inactive
Btn1a1	1	-0.31	enough cells in well	146	123	inactive
Castor2	1	-0.53	enough cells in well	197	117	inactive
Spast	1	-0.18	enough cells in well	264	200	inactive
Grm8	1	0.21	enough cells in well	219	336	inactive
Fxyd2	1	-0.22	enough cells in well	266	191	inactive
Kcne2	1	-0.03	enough cells in well	198	12.6	inactive
Or5b113	1	0.34	enough cells in well	171	155	inactive
Ercc8	1	0.27	enough cells in well	259	236	inactive
Agrn	1	-0.95	enough cells in well	76.5	189	inactive
Pds5b	1	-0.09	enough cells in well	116	218	inactive
Sp3	1	0.23	enough cells in well	335	203	inactive
Ascl3	1	-1.83	enough cells in well	92.5	55.9	active
Tnfaip1	1	-1.02	enough cells in well	165	80.4	inactive
Ttc1	1	0.75	enough cells in well	148	98	inactive
Llgl2	1	1.43	enough cells in well	307	196	inactive
Mesd	1	-1.13	enough cells in well	128	155	inactive
Chrna4	1	-0.52	enough cells in well	259	119	inactive
Sox7	1	1.14	enough cells in well	174	105	inactive
Cntnap2	1	-0.43	enough cells in well	219	170	inactive
Trim35	1	-1.31	enough cells in well	67.7	10.9	active
Top1	1	-0.9	enough cells in well	195	73.1	inactive
Lgals6	1	-0.32	enough cells in well	174	127	inactive
Med31	1		fewer than 50 cells per well; well left out of calls	165	59	inactive
Nckap1	1	-0.42	enough cells in well	233	171	inactive
Lancl2	1	0.44	enough cells in well	188	173	inactive
Clspn	1	-0.13	enough cells in well	225	194	inactive
Abhd17a	1	-1.73	enough cells in well	83.5	66.6	active
Or14j5	1	0.36	enough cells in well	213	128	inactive
Edem2	1	-0.05	enough cells in well	168	140	inactive
Nup214	1		fewer than 50 cells per well; well left out of calls	47.3	94	inactive
Tmprss6	1		fewer than 50 cells per well; well left out of calls	44.3	59.2	inactive
Hmmr	1	-0.11	enough cells in well	209	199	inactive
Acer1	1	0.65	enough cells in well	212	196	inactive
E2f2	1	2.11	enough cells in well	344	286	inactive
E2f2	2	0.27	enough cells in well	251	227	inactive
Mms19	1	2.45	enough cells in well	382	212	inactive
Or4f15	1	-0.19	enough cells in well	161	118	inactive
